Reference: PubChem BioAssay AID1259405 (NCATS, 2018)
Purpose: 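Mouse-designed siRNAs used to find CHO productivity engineering targets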 (primary screen). Cell system: Chinese hamster CHO-K1 ovary cells with stable secreted eGFP expression. Reagents: single siRNA against mouse genes, 0.8 pmol siRNA per well (2 µl of 400 nM stock). Timing: 3 days. Measured: 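Per-well intracellular GFP measured by laser scanning cytometry, plus viability from ATP luminescence, each relative to plate median of non-targeting control wells, in %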. Direction: GFP, % of control: higher = more GFP per well, higher productivity; viability (ATP), % of control: higher = more viable cells (more ATP). Active means: 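Called active when intracellular GFP, relative to negative control, is at or above 120%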.
This is an unselected part of about 50,000 deposited reagents. About 4,000 of them (8%) count as active. 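Mouse siRNA library applied to hamster cells; one well for each siRNA.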 The numbers tell different reagents against one gene apart.

Dmrta2 #1 gave GFP, % of control 151; viability (ATP), % of control 114; active.
For Dmrta2 #2, the entry reads GFP, % of control 81.4; viability (ATP), % of control 76; inactive.
Against Dmrta2 #3 the deposit lists GFP, % of control 41.7; viability (ATP), % of control 37; inactive.
With knock-down of Rbm7 #1 the results were GFP, % of control 98.5; viability (ATP), % of control 96.3; inactive.
Rbm7 #2 showed GFP, % of control 78.8; viability (ATP), % of control 85.3; inactive.
For Or10a3m #1, the entry reads GFP, % of control 41.1; viability (ATP), % of control 24.5; inactive.
After knock-down of Or10a3m #2 the results were GFP, % of control 74.7; viability (ATP), % of control 70.5; inactive.
Or10a3m #3 gave GFP, % of control 80.6; viability (ATP), % of control 67.7; inactive.
Against Enox1 #1, the entry reads GFP, % of control 76.3; viability (ATP), % of control 82.1; inactive.
For Enox1 #2, the values are GFP, % of control 71.2; viability (ATP), % of control 64.9; inactive.
Enox1 #3 gave GFP, % of control 97.9; viability (ATP), % of control 77.7; inactive.
Knock-down of Abcc1 #1 came out at: GFP, % of control 99.5; viability (ATP), % of control 124; inactive.
Against Abcc1 #2 the deposit lists GFP, % of control 70; viability (ATP), % of control 76.3; inactive.
For Abcc1 #3 the deposit lists GFP, % of control 82.3; viability (ATP), % of control 66.5; inactive.
Silencing of Vmn1r148 #1 resulted in: GFP, % of control 132; viability (ATP), % of control 85.3; active.
Silencing of Vmn1r148 #2 gave: GFP, % of control 70.9; viability (ATP), % of control 57.3; inactive.
Knock-down of Vmn1r148 #3 resulted in: GFP, % of control 101; viability (ATP), % of control 97.5; inactive.
For Chl1 #1 the deposit lists GFP, % of control 70.8; viability (ATP), % of control 65.3; inactive.
Chl1 #2 gave GFP, % of control 85.3; viability (ATP), % of control 55.2; inactive.
Ewsr1 #1 gave GFP, % of control 66.6; viability (ATP), % of control 85.2; inactive.
Ewsr1 #2 scored GFP, % of control 54.5; viability (ATP), % of control 53; inactive.
Silencing of Ewsr1 #3 came out at: GFP, % of control 86.4; viability (ATP), % of control 83.1; inactive.
Silencing of Ccr3 #1 came out at: GFP, % of control 127; viability (ATP), % of control 90.4; active.
For Ccr3 #2, the values are GFP, % of control 87.6; viability (ATP), % of control 62.1; inactive.
Against Ccr3 #3 the deposit lists GFP, % of control 63.4; viability (ATP), % of control 66.6; inactive.

5 entries already listed, ordered by “viability (ATP), % of control”, lowest first.
Or10a3m #1 → GFP, % of control = 41.1; viability (ATP), % of control = 24.5; Call = inactive
Or10a3m #3 → GFP, % of control = 80.6; viability (ATP), % of control = 67.7; Call = inactive
Or10a3m #2 → GFP, % of control = 74.7; viability (ATP), % of control = 70.5; Call = inactive
Enox1 #1 → GFP, % of control = 76.3; viability (ATP), % of control = 82.1; Call = inactive
Rbm7 #2 → GFP, % of control = 78.8; viability (ATP), % of control = 85.3; Call = inactive

Next results:
For Capn2 #1, the values are GFP, % of control 69.7; viability (ATP), % of control 97.9; inactive.
Capn2 #2 showed GFP, % of control 50.3; viability (ATP), % of control 63.3; inactive.
For Capn2 #3, the values are GFP, % of control 81.6; viability (ATP), % of control 72.7; inactive.
After knock-down of Cdk4, the record shows GFP, % of control 89.9; viability (ATP), % of control 90.5; inactive.
For Hsf4 #1 the deposit lists GFP, % of control 72.3; viability (ATP), % of control 36.6; inactive.
For Hsf4 #2, the values are GFP, % of control 90.9; viability (ATP), % of control 63.8; inactive.
Against Hsf4 #3, the entry reads GFP, % of control 90.3; viability (ATP), % of control 110; inactive.
Knock-down of Emc1 #1 resulted in: GFP, % of control 114; viability (ATP), % of control 80.3; inactive.
Against Emc1 #2, the entry reads GFP, % of control 67.9; viability (ATP), % of control 84.5; inactive.
With knock-down of Emc1 #3, the screen gave GFP, % of control 113; viability (ATP), % of control 120; inactive.
Against Or10n1 #1, the values are GFP, % of control 67; viability (ATP), % of control 77.1; inactive.
For Or10n1 #2 the deposit lists GFP, % of control 61.5; viability (ATP), % of control 99.8; inactive.
After knock-down of Or10n1 #3, the record shows GFP, % of control 57.3; viability (ATP), % of control 65.3; inactive.
With knock-down of Tbc1d2 #1, the record shows GFP, % of control 128; viability (ATP), % of control 96.1; active.
Tbc1d2 #2 scored GFP, % of control 108; viability (ATP), % of control 70.6; inactive.
Tbc1d2 #3 gave GFP, % of control 75.8; viability (ATP), % of control 96.3; inactive.
